Some of the results follow.
Assays:
Experiment in all cases: log2 fold change, soluble protein after heating vs DMSO (PISA); higher = thermal stabilisation; K562 cells, 10 uM, 30 min; active = over 0.2 and 3.5 SD of the protein, either way, in both replicates (recomputed)
[1] = compound: CC1=C(C=C(C=C1)NC(=O)C2=CC(=CC=C2)C(C)(C)C#N)NC3=CC4=C(C=C3)N=CN(C4=O)C
Outline: (§1)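 Soluble protein was defined as the supernatant after 21,000xg for 90 min. It came from K562 cells at 2×10^6 cells/mL given 10 μM compound for 30 min, heated in aliquots for 3 min across 48°C-58°C, pooled, and extracted in PBS with 0.5% NP-40 at 4°C, and was quantified by TMTpro 16plex LC-MS/MS with equalised channel sums. Thermal stability against control samples, from duplicates, is reported as log2 fold change.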

Sequences of proteins named here, by UniProt entry; tags and fusion partners are left off. A change or cut given only in a name is not applied to a line headed by its entry.
UniProt Q5EBL8: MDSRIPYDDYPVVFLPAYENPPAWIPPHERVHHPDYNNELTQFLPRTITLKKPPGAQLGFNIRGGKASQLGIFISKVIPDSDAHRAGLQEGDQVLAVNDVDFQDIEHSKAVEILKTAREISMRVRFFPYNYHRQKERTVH
UniProt Q9HBI1: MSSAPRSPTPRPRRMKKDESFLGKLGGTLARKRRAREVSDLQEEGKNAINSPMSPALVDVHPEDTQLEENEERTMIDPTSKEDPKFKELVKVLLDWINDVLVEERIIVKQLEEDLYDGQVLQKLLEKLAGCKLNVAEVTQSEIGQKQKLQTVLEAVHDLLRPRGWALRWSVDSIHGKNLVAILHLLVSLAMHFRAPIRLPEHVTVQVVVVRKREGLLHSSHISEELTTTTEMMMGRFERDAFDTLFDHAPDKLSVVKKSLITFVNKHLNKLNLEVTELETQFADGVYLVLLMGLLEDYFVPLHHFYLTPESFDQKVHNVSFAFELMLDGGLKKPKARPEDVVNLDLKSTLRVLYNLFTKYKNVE
UniProt Q9BRP1: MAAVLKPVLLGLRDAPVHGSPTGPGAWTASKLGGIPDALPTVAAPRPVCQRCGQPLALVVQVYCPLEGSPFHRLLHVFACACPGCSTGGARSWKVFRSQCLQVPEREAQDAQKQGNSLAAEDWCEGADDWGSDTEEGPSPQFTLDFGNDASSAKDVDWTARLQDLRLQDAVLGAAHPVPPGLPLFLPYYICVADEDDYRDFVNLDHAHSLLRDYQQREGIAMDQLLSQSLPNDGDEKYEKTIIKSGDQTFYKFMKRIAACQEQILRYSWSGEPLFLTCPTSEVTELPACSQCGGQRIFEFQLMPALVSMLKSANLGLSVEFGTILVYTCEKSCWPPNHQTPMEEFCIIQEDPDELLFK
UniProt O95453: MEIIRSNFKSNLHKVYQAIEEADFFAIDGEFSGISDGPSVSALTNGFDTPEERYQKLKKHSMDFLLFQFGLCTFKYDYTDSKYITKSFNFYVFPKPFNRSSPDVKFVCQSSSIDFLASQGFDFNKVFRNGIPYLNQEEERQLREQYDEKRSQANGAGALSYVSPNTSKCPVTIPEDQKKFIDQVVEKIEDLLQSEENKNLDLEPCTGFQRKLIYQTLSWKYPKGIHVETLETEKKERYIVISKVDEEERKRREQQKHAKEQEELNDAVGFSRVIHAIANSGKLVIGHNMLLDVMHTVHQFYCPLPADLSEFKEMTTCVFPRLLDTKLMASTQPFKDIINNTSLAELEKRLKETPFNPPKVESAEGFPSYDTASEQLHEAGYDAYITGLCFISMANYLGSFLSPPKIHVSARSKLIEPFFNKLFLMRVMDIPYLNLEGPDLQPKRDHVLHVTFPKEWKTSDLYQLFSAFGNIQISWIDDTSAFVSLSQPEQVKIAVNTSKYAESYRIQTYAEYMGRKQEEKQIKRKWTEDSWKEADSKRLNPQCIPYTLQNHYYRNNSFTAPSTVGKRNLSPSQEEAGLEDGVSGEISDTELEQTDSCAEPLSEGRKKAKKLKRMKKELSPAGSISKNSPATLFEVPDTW
UniProt Q6VY07, whole entry, looked up: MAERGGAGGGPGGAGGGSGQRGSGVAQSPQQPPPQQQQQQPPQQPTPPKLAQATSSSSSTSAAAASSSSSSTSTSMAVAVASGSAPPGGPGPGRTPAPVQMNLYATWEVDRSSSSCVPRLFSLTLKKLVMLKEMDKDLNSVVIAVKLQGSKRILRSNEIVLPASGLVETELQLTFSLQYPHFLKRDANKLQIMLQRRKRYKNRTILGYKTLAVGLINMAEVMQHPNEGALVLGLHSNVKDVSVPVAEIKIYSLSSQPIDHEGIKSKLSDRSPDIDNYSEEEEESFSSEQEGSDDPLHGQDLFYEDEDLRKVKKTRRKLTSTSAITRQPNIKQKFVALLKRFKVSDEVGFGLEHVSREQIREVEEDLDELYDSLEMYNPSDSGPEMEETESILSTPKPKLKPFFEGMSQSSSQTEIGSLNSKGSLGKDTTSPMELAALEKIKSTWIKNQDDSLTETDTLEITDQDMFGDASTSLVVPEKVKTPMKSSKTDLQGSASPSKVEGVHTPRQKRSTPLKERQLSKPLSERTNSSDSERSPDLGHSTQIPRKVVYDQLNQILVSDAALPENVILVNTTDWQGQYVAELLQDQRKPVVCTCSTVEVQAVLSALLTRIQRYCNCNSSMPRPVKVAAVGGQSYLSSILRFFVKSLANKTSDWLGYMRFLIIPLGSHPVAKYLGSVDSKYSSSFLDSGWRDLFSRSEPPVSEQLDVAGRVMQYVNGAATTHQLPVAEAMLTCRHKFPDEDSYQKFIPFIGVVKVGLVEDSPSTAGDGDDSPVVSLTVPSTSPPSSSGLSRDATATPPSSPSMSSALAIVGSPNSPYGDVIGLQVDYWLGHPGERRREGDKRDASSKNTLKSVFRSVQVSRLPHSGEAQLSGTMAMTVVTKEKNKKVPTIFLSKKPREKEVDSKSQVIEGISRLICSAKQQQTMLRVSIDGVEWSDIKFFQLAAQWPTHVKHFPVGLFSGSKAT
UniProt P40425: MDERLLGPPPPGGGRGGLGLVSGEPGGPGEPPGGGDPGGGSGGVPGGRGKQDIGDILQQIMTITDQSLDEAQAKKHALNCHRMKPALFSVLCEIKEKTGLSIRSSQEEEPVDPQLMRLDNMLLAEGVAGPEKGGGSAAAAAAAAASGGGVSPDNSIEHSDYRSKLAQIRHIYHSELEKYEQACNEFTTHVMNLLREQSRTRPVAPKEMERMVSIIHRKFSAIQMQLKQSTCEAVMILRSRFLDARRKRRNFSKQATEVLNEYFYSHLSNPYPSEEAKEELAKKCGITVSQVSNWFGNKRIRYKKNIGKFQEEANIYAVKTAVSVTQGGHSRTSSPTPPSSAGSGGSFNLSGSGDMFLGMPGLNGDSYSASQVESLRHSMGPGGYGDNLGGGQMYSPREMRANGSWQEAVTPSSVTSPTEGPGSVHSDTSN
UniProt P51003: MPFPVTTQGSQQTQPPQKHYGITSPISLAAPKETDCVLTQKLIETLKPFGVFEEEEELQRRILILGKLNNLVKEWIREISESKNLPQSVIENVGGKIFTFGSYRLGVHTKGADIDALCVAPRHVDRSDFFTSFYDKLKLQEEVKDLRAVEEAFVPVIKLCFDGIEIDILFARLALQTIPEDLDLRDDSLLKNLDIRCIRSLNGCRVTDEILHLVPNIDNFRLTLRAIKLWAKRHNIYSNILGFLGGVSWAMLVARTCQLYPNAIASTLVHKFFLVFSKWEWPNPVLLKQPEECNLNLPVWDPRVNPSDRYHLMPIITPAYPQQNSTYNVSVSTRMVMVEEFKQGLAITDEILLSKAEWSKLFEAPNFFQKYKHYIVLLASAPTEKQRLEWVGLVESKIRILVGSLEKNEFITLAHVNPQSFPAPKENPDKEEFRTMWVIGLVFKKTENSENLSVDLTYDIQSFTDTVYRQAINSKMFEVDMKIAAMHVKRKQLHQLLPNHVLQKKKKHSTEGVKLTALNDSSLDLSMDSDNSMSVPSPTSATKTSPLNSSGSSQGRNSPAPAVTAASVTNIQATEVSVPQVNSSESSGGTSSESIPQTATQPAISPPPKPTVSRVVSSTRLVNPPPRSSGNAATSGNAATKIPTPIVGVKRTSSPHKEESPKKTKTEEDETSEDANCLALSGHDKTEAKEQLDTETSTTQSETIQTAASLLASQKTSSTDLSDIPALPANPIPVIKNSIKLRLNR
UniProt O75459: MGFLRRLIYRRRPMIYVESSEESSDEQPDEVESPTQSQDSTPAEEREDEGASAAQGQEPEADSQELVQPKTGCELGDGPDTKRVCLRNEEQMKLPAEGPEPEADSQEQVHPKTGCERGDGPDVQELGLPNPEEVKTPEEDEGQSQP
UniProt Q8WUM4: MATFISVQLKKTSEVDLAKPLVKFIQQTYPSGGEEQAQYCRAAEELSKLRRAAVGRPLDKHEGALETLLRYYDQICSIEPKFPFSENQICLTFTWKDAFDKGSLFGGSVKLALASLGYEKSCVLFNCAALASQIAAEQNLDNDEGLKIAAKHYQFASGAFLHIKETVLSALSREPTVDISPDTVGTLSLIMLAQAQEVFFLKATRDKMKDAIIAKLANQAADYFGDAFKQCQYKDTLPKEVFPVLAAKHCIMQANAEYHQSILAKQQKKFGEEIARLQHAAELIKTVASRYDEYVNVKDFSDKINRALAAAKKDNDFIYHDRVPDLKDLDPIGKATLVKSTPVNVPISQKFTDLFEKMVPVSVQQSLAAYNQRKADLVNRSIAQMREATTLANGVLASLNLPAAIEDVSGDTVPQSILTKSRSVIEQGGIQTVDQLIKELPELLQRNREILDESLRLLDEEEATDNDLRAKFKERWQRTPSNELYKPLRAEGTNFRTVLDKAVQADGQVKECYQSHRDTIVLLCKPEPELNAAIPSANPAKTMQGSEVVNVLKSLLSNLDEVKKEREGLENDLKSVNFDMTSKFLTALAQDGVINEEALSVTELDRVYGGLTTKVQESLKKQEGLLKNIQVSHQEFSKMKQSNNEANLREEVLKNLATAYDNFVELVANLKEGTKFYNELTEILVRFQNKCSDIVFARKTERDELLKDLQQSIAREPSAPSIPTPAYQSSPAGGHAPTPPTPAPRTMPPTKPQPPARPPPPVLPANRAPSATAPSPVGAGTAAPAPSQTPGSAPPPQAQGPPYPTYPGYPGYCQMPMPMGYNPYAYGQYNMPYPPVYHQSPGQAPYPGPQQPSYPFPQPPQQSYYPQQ
UniProt P05166: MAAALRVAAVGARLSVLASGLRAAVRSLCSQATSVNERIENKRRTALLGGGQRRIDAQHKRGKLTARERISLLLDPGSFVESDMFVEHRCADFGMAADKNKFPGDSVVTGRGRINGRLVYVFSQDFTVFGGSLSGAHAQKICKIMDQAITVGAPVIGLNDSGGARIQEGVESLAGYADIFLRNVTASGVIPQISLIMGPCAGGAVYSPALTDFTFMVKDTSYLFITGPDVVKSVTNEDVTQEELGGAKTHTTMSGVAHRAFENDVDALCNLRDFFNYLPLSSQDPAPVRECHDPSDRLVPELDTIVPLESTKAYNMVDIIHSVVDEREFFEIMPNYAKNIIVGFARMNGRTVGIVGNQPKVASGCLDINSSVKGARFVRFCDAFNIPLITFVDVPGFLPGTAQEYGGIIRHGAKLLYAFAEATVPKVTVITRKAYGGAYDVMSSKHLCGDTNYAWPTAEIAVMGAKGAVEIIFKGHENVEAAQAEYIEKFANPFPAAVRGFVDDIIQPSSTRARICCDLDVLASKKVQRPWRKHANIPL
UniProt Q13153, whole entry, looked up: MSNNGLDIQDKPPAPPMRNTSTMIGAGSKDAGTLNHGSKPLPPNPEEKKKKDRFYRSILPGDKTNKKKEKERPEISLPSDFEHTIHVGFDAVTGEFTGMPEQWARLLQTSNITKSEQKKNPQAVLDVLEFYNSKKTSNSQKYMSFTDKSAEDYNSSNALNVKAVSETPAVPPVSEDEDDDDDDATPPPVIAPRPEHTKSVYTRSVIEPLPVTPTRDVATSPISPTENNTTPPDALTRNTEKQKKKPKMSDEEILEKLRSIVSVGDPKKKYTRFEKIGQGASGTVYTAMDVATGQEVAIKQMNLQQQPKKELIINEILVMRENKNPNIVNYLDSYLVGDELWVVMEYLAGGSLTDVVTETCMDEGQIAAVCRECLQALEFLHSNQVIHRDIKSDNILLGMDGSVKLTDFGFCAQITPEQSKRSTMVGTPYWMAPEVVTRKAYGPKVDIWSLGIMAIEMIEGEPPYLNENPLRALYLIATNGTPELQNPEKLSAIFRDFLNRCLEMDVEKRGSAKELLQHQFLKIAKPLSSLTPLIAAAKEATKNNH
UniProt P11177, whole entry, looked up: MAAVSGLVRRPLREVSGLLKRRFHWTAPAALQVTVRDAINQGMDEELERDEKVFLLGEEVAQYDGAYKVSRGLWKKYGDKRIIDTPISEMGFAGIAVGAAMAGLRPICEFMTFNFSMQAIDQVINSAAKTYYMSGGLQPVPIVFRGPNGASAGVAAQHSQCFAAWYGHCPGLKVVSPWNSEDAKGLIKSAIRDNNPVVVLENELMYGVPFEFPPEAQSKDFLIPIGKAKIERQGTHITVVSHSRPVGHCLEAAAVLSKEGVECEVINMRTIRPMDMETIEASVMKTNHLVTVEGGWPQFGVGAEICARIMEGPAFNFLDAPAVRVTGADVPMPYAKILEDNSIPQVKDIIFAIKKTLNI
UniProt Q9NWT1: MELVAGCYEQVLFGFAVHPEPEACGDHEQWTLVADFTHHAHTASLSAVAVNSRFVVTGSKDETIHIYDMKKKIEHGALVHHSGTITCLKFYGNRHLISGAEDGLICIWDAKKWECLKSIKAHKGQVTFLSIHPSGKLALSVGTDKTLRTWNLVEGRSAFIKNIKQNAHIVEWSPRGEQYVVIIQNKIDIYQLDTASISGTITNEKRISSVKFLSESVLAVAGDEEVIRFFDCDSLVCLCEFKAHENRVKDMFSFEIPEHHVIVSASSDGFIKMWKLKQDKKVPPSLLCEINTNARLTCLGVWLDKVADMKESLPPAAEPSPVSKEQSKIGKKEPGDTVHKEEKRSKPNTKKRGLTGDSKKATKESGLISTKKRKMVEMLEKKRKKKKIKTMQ
UniProt P61457: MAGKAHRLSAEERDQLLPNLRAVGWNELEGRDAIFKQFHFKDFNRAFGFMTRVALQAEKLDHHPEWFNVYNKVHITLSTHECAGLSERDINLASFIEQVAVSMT

[2] = compound: CC1=C(C=C(C=C1)NC(=O)C2=CC(=CC=C2)N(C)C)NC(=O)C3=CC=C(C=C3)O
Outline: as §1

[3] = compound: CC1=CC=C(C=C1)SC2=C3C=C(SC3=CN=C2)C(=O)N
Outline: as §1

[4] = compound: CC1=NC(=CC=C1)C2=C(N=C(N2)C(C)(C)C)C3=CC4=NC=CN=C4C=C3
Outline: as §1

[5] = compound: CCCCN(Cc1ccc(C(=O)NO)cc1)C(=O)Nc1ccccc1 [Nexturastat A]
Outline: as §1

[6] = compound: CCCS(=O)(=O)Nc1ccc(F)c(C(=O)c2c[nH]c3ncc(-c4ccc(Cl)cc4)cc23)c1F [vemurafenib]
Outline: as §1

[7] = compound: CCCS(=O)(=O)Nc1ccc(F)c(C(=O)c2c[nH]c3ncc(Cl)cc23)c1F
Outline: as §1

[8] = compound: CCCc1cc(C)[nH]c(=O)c1CNC(=O)c1cc(-c2ccnc(N3CCN(C)CC3)c2)cc2c1cnn2C(C)C
Outline: as §1

[9] = compound: CCN(CC)Cc1ccc2cc(COC(=O)Nc3ccc(C(=O)NO)cc3)ccc2c1 [givinostat]
Outline: as §1

[10] = compound: CCN(CCCOc1ccc2c(Nc3cc(CC(=O)Nc4cccc(F)c4)[nH]n3)ncnc2c1)CCOP(=O)(O)O [barasertib]
Outline: as §1

Measured: log2 fold change

PDZD11 isoform 2 (UniProt Q5EBL8)
inactive: [1] -0.032 | [2] -0.047 | [3] 0.013 | [4] 0.042 | [5] 0.051 | [6] -0.044 | [7] 0.029 | [8] 0.07 | [9] -0.032 | [10] 0.081

PDIK1L (UniProt Q8N165)
inactive: [1] -0.079 | [2] 0.031 | [3] -0.265 | [4] 0.068 | [5] -0.077 | [6] 0.026 | [7] 0 | [8] 0.03 | [9] 0.034 | [10] 0.055

PCNT (UniProt O95613)
inactive: [1] -0.104 | [2] 0.068 | [3] -0.117 | [4] -0.116 | [5] 0.007 | [6] -0.122 | [7] -0.103 | [8] -1.05 | [9] 0.255 | [10] 0.045

PDS5A (UniProt Q29RF7)
inactive: [1] 0.093 | [2] -0.109 | [3] 0.012 | [4] 0.12 | [5] 0.057 | [6] 0.143 | [7] 0.294 | [8] 0 | [9] 0.208 | [10] 0.275

PARVB (UniProt Q9HBI1)
inactive: [1] 0 | [2] -0.006 | [3] 0.038 | [4] 0.011 | [5] -0.021 | [6] 0.005 | [7] 0.039 | [8] 0.014 | [9] 0 | [10] 0.041

PCCA (UniProt P05165)
inactive: [1] -0.02 | [2] 0.015 | [3] -0.025 | [4] -0.018 | [5] 0.059 | [6] 0.01 | [7] -0.015 | [8] -0.057 | [9] 0.016 | [10] -0.05

PDCD2L (UniProt Q9BRP1)
inactive: [1] -0.001 | [2] -0.104 | [3] 0.052 | [4] 0.068 | [5] 0 | [6] -0.038 | [7] 0.079 | [8] 0.045 | [9] -0.088 | [10] 0.069

PARN (UniProt O95453)
inactive: [1] -0.038 | [2] -0.004 | [3] 0.004 | [4] 0.013 | [5] -0.069 | [6] 0 | [7] 0.043 | [8] -0.058 | [9] 0.059 | [10] 0.057

PEX11B (UniProt O96011)
inactive: [1] 0.06 | [2] -0.039 | [3] 0.321 | [4] -0.008 | [5] -0.076 | [6] 0.08 | [7] 0 | [8] 0.029 | [9] 0.008 | [10] -0.002

PDCD6 (UniProt O75340)
inactive: [1] 0.013 | [2] 0.039 | [3] -0.001 | [4] 0.032 | [5] -0.032 | [6] -0.025 | [7] 0.023 | [8] -0.089 | [9] -0.017 | [10] 0.004

PES1 (UniProt O00541)
inactive: [1] -0.041 | [2] 0.044 | [3] -0.053 | [4] -0.106 | [5] 0.177 | [6] 0.084 | [7] -0.016 | [8] 0.399 | [9] 0.039 | [10] 0.003

PAPSS1 (UniProt O43252)
inactive: [1] -0.023 | [2] 0.015 | [3] -0.033 | [4] 0.011 | [5] -0.002 | [6] 0.006 | [7] -0.007 | [8] -0.029 | [9] 0.022 | [10] 0.018

PARG (UniProt Q86W56)
inactive: [1] 0.126 | [2] -0.064 | [3] -0.008 | [4] 0.025 | [5] 0.018 | [6] 0.087 | [7] -0.006 | [8] -0.003 | [9] 0.107 | [10] 0.07

PACS1 (UniProt Q6VY07)
inactive: [1] -0.001 | [2] -0.031 | [3] -0.021 | [4] 0.087 | [5] 0.023 | [6] 0.021 | [7] 0.023 | [8] 0.092 | [9] 0.004 | [10] 0.039

PDCD4 (UniProt Q53EL6)
inactive: [1] 0.029 | [2] -0.043 | [3] 0.012 | [4] 0.016 | [5] -0.11 | [6] 0.083 | [7] 0.107 | [8] -0.06 | [9] 0.103 | [10] 0.002

PBX2 (UniProt P40425)
inactive: [1] 0.049 | [2] 0.001 | [3] 0.089 | [4] 0.165 | [5] 0.072 | [6] 0.099 | [7] 0.136 | [8] 0.026 | [9] 0.138 | [10] 0.03

PAPOLA (UniProt P51003)
inactive: [1] -0.006 | [2] 0.011 | [3] 0.027 | [4] 0.022 | [5] -0.043 | [6] 0.059 | [7] 0.034 | [8] -0.001 | [9] -0.047 | [10] 0.014

PBDC1 (UniProt Q9BVG4)
inactive: [1] -0.03 | [2] 0.001 | [3] 0.024 | [4] 0.002 | [5] -0.013 | [6] 0.052 | [7] 0 | [8] 0.013 | [9] 0.007 | [10] 0.067

PAFAH1B1 (UniProt P43034)
inactive: [1] -0.006 | [2] -0.001 | [3] -0.009 | [4] -0.003 | [5] -0.045 | [6] 0.01 | [7] 0 | [8] -0.026 | [9] -0.039 | [10] -0.007

PAGE1 (UniProt O75459)
inactive: [1] 0.003 | [2] -0.014 | [3] -0.038 | [4] 0.007 | [5] 0.032 | [6] -0.019 | [7] -0.122 | [8] 0.001 | [9] -0.106 | [10] 0.068

PDCD6IP (UniProt Q8WUM4)
inactive: [1] 0.032 | [2] -0.079 | [3] 0.077 | [4] 0.058 | [5] 0.066 | [6] 0.106 | [7] 0.153 | [8] 0.119 | [9] 0.183 | [10] 0.135

PCCB isoform 2 (UniProt P05166)
inactive: [1] -0.015 | [2] 0.021 | [3] -0.008 | [4] 0.004 | [5] -0.028 | [6] -0.001 | [7] -0.022 | [8] -0.04 | [9] 0 | [10] -0.005

PAK1 isoform 2 (UniProt Q13153)
inactive: [1] 0.035 | [2] -0.072 | [3] 0.114 | [4] 0.003 | [5] -0.01 | [6] 0.019 | [7] -0.036 | [8] -0.075 | [9] -0.054 | [10] -0.001

PCTP (UniProt Q9UKL6)
inactive: [1] -0.007 | [2] 0.004 | [3] 0.052 | [4] 0.039 | [5] -0.003 | [6] 0.005 | [7] 0.066 | [8] 0.026 | [9] -0.035 | [10] 0.013

PET100 (UniProt P0DJ07)
inactive: [1] -0.076 | [2] 0 | [3] 0 | [4] -0.043 | [5] 0 | [6] 0.043 | [7] -0.098 | [8] 0.047 | [9] 0.005 | [10] 0.019

PDSS1 (UniProt Q5T2R2)
inactive: [1] -0.076 | [2] -0.007 | [3] -0.065 | [4] 0 | [5] -0.18 | [6] 0.01 | [7] 0.029 | [8] -0.011 | [9] -0.073 | [10] 0.05

PDHB (UniProt P11177)
inactive: [1] 0.03 | [2] -0.033 | [3] -0.024 | [4] -0.058 | [5] 0.185 | [6] 0.006 | [7] -0.06 | [8] 0.105 | [9] 0.075 | [10] -0.024

PAK1IP1 (UniProt Q9NWT1)
inactive: [1] 0.004 | [2] -0.017 | [3] -0.155 | [4] -0.095 | [5] 0.199 | [6] -0.201 | [7] -0.127 | [8] 0.161 | [9] -0.024 | [10] -0.18

8 successive entries already listed, quoted:
PAGE1 (UniProt O75459)
inactive: [1] 0.003 | [2] -0.014 | [3] -0.038 | [4] 0.007 | [5] 0.032 | [6] -0.019 | [7] -0.122 | [8] 0.001 | [9] -0.106 | [10] 0.068

PDCD6IP (UniProt Q8WUM4)
inactive: [1] 0.032 | [2] -0.079 | [3] 0.077 | [4] 0.058 | [5] 0.066 | [6] 0.106 | [7] 0.153 | [8] 0.119 | [9] 0.183 | [10] 0.135

PCCB isoform 2 (UniProt P05166)
inactive: [1] -0.015 | [2] 0.021 | [3] -0.008 | [4] 0.004 | [5] -0.028 | [6] -0.001 | [7] -0.022 | [8] -0.04 | [9] 0 | [10] -0.005

PAK1 isoform 2 (UniProt Q13153)
inactive: [1] 0.035 | [2] -0.072 | [3] 0.114 | [4] 0.003 | [5] -0.01 | [6] 0.019 | [7] -0.036 | [8] -0.075 | [9] -0.054 | [10] -0.001

PCTP (UniProt Q9UKL6)
inactive: [1] -0.007 | [2] 0.004 | [3] 0.052 | [4] 0.039 | [5] -0.003 | [6] 0.005 | [7] 0.066 | [8] 0.026 | [9] -0.035 | [10] 0.013

PET100 (UniProt P0DJ07)
inactive: [1] -0.076 | [2] 0 | [3] 0 | [4] -0.043 | [5] 0 | [6] 0.043 | [7] -0.098 | [8] 0.047 | [9] 0.005 | [10] 0.019

PDSS1 (UniProt Q5T2R2)
inactive: [1] -0.076 | [2] -0.007 | [3] -0.065 | [4] 0 | [5] -0.18 | [6] 0.01 | [7] 0.029 | [8] -0.011 | [9] -0.073 | [10] 0.05

PDHB (UniProt P11177)
inactive: [1] 0.03 | [2] -0.033 | [3] -0.024 | [4] -0.058 | [5] 0.185 | [6] 0.006 | [7] -0.06 | [8] 0.105 | [9] 0.075 | [10] -0.024

Continuation.

PDLIM4 (UniProt P50479)
inactive: [1] -0.012 | [2] -0.026 | [3] 0.001 | [4] -0.002 | [5] -0.022 | [6] 0.004 | [7] -0.01 | [8] -0.005 | [9] 0.08 | [10] 0.013

PCBD1 (UniProt P61457)
inactive: [1] -0.096 | [2] -0.047 | [3] -0.002 | [4] -0.011 | [5] -0.202 | [6] -0.074 | [7] 0.002 | [8] -0.06 | [9] 0.009 | [10] 0.028
